# In PubChem BioAssay AID1458 (National Center for Advancing Translational Sciences (NCATS), 2008):
# In all, about 210,000 compounds went through this assay and about 5,900 (2.8%) were called active. Inconclusive results (about 5%) are left out. Calls follow the shape of the dose curve; as a rule, active = well fitted activation curve with a large enough effect; inconclusive = small, poorly fitted or top-dose-only effect; inactive = no such curve, though single readings can be large or run the other way. This is a selection; strong and weak results do not stand in their true shares. Where no call is shown, the source filed none.
# Experiment: qHTS Assay for Enhancers of SMN2 Splice Variant Expression; also: nearly all actives have a fitted effect of over 55% in size; as to activity change, positive = activation: % of control where 0% means no effect
# Details: HEK293 SMN2-luciferase splicing reporter, luminescence, 30-36 h; activity change, positive = activation: at 46.1 µM (top of the series) unless noted
# In short: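 HEK293 cells carry an SMN2 minigene-luciferase reporter in which exon 7 inclusion puts luciferase in frame. Cells were seeded at 2000 cells/well, attached for 10-12 hours, then exposed to compounds for 30-36 hours at 37C before ONE-Glo luminescence.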
# Potency is read from the fitted curve at half-maximal effect.
SMILES,"activity change, positive = activation",Potency
NS(=O)(=O)c1ccc(CCNC(=O)c2ccc(C#CC3(O)CCCCC3)cc2)cc1,inactive: -54.3%,–
CC1CC(C)(C)Nc2ccc(OC(=O)c3ccco3)cc21 (configuration not stated),-77.5%,–
COc1ccc(N2CCN(C(=O)c3ccc(NS(=O)(=O)c4ccc(F)cc4)cc3)CC2)cc1,-36.7%,–
C/C(=N\NC(=O)Cc1cccc2ccccc12)c1ccncc1,inactive: -34.5%,–
CCOC(=O)C1=C(C)Nc2ncnn2C1c1ccc2c(c1)OCO2 (configuration not stated),23.5%,–
Cc1ccc(-c2cc(N)n(-c3ccccc3)n2)cc1,–,active: 11.2 µM
CC(=O)Nc1sc2c(c1C#N)CC(C)(C)NC2(C)C,47.2%,–
COc1ccc2[nH]cc(CCNC(=O)Nc3cc(C)cc(C)c3)c2c1,35.3%,–
CCC(=O)Nc1ccc(/C(C)=N/NC(=O)c2c(-c3ccccc3Cl)noc2C)cc1,27.8%,–
CCOc1ccc(NS(=O)(=O)c2ccc(OCC(=O)N3CCCC3)cc2)cc1,30.7%,–
COc1ccc(C(=O)NCCSC2CCCCC2)cc1,–,active: 15.8 µM
O=[N+]([O-])c1cc(/C=N/Nc2nc3ccccc3[nH]2)c(O)cc1O,inactive: -65.2%,–
Nc1c(Cl)ncnc1N/N=C/c1ccccn1,inactive: -81.4%,–
Cc1nc([N+](=O)[O-])c(Br)n1CC(=O)c1ccccc1,37%,–
CC1(C)N(O)CC(c2cccs2)=[N+]1[O-],32.8%,–
O=C(Nc1ccc(Cl)c(S(=O)(=O)N2CCOCC2)c1)c1cn2ccccc2n1,inactive: -49.6%,–
CCCOC(=O)c1ccc(Oc2c(-c3ccc(OCC)cc3O)n[nH]c2C)cc1,-78.1%,–
c1ccc2cc(-c3cc4ccccn4c3)ccc2c1,–,active: 11.2 µM
CC1=C(/C=C/C(C)=C/C=C/C(C)=C/C(=O)Nc2ccc(O)cc2)C(C)(C)CCC1,–,inactive
Cc1ccc(NS(=O)(=O)c2c(C)nc3sccn3c2=O)c(Cl)c1,30.5%,–
O=S(=O)(c1cnc[nH]1)N1CCc2ccccc21,47%,–
COc1ccc(OC)c(NC(=O)C2CCN(S(C)(=O)=O)CC2)c1,31.1%,–

SMILES,"activity change, positive = activation",Potency
O=C(NNC(=O)c1cccc(-n2cnnn2)c1)c1ccccc1,inactive: -3.04%,–
CCCCOc1ccc(S(=O)(=O)NNC(=O)c2cc3ccccc3o2)cc1,-61.8%,–
CCN(CC)S(=O)(=O)c1ccc2c(c1)C(=NO)c1cc(S(=O)(=O)N(CC)CC)ccc1-2,inactive: -92.1%,–
CCCn1c(=O)c2sccc2n2c(CCCC(=O)Nc3ccc(Oc4ccc(Cl)cc4)cc3)nnc12,47.9%,–
COc1ccc(C(=O)/C=C\N2CCOCC2)cc1,46.1%,–
CC(=O)c1oc2ccccc2c1NC(=O)CN1CCCCC1,inactive: -33.4%,–
CSCCC(NC(=O)c1ccccc1)C(=O)NC1CCCC1 (configuration not stated),81.1%,–
CC(C)(C)n1nnnc1CN1CCN(C(c2ccccc2)c2ccccc2)CC1,-113%,–
O=C1NC(Nc2ccccn2)(C(F)(F)F)C(=O)N1c1ccc(F)cc1 (configuration not stated),31.6%,–
COc1ccc(N(C)S(=O)(=O)c2ccc3c(c2)oc(=O)n3C)cc1,43.9%,–
O=C(COc1ccc(Cl)cc1)Nc1ccc2oc(-c3ccncc3)nc2c1,34.2%,–
CN(Cc1cccs1)C(=O)CSc1nc2ccccc2[nH]1,31.3%,–
Cc1ccc(NC(=O)c2ccccc2NC(=O)CCC(=O)O)cc1,62.5%,–
COCCn1c(=O)c(CCc2ccccc2)nc2cnc(Oc3cccc(Cl)c3)nc21,inactive: -45.3%,–
CCOC(=O)/C(=C\C=C1/Sc2cc(OCC)c(OCC)cc2N1CC)C(C)=O,inactive: -46.8%,–
COC(=O)c1cc2nc(-c3ccccc3)cc(C)n2n1,16.6%,–
CCN(CC)c1ccc(/C=C2\C(=O)c3ccc(C(=O)O)cc3C2=O)cc1,inactive: -8.86%,–
CCN(c1ccccc1)S(=O)(=O)c1ccc(Cl)c(C(=O)O)c1,33.4%,–
S=C(NCCc1ccccc1)Nc1cccc2cnccc12,inactive: -59.3%,–
Cc1ccc(Nc2cc(C)nn2-c2nc(C)cc(C)n2)cc1,inactive: -39.9%,–
Cc1ccccc1CSc1ccc(-c2ccc3c(c2)OCO3)nn1,114%,–
CCOC(=O)CN/C=C(\C#N)c1ccccc1,inactive: -8.16%,–

SMILES,"activity change, positive = activation",Potency
CCOc1ccccc1NC(=O)Nc1ccc(Cl)cc1,inactive: -20.6%,–
O=C(Cc1c(Sc2ccccc2)c2ccccc2n1Cc1ccccc1)NCCO,-69.8%,–
COc1cccc(OCCSc2nc(N)cc(N)n2)c1,inactive: -63.1%,–
COc1ccc(Nc2oc(COc3ccc(C)cc3)nc2C#N)cc1,inactive: -87.3%,–
COc1ccc2c(c1)CC/C(=C/c1ccncc1)C2=O,inactive: -58.1%,–
CCc1ccc(C2=NN(C(C)=O)C(c3ccco3)C2)cc1 (configuration not stated),–,active: 12.6 µM
Cc1cc2ccccc2n1CCNC(=O)c1ccccc1,inactive: -54.1%,–
Cc1ccc(-c2cc(-c3cccc(F)c3)n[nH]2)c(O)c1,–,active: 14.1 µM
CC(=O)NC(C(=O)O)C(C)(C)SN=O (configuration not stated),inactive: -3.19%,–
CCOC(=O)/C(C#N)=C\c1c(OCC)n(CC)c2ccccc12,inactive: -14.6%,–
O=C(Nc1ccc(SC(F)(F)F)cc1)c1ccccn1,–,active: 2.24 µM
O=C(Nc1ccc(N2CCCCC2)c(Cl)c1)c1cccnc1,–,active: 12.6 µM
COc1cccc(OC)c1C(=O)Nc1ccccc1C(=O)N1CCOCC1,24.6%,–
C/C(=N\NC(=O)c1cccc(N/N=C(\C)c2cc(O)ccc2O)c1)c1cc(O)ccc1O,inactive: -56.1%,–
CCc1ccc(CNc2ccc(O)cc2)cc1,46.7%,–
Nc1c(C(=O)NCc2ccc3c(c2)OCO3)c2nc3ccccc3nc2n1CCCN1CCOCC1,-60.3%,–
COc1ccc2c(c1)O[C@@H](c1ccc3c(c1)OCO3)[C@H](OC(=O)N[C@H](C)C1CCCCC1)C2=O,inactive: -1.22%,–
COCCn1c(C)cc(C2=NNC(=NC3CC3)SC2)c1C,inactive: -103%,–
O=C(COc1ccccc1)NC1CCN(Cc2ccccc2)CC1,43.1%,–
N#C/C(=N\Nc1ccc(F)cc1)C(=N)N1CCCCC1,254%,–
O=C(/C=C/c1cccc(Oc2ccccc2)c1)N1CCOCC1,201%,–
Cn1nnnc1SCC(=O)NCc1cccc(C(=O)O)c1,37.7%,–

# Single records (already shown). Order of values: activity change, positive = activation | Potency
# CCOC(=O)/C(C#N)=C\c1c(OCC)n(CC)c2ccccc12 as listed: inactive: -14.6% | –
# O=C(Nc1ccc(SC(F)(F)F)cc1)c1ccccn1 as listed: – | active: 2.24 µM
# N#C/C(=N\Nc1ccc(F)cc1)C(=N)N1CCCCC1 as listed: 254% | –
# O=C(COc1ccccc1)NC1CCN(Cc2ccccc2)CC1 as listed: 43.1% | –

# Continued.

SMILES,"activity change, positive = activation",Potency
C[C@@H]1O[C@H](O[C@@H]2[C@H](C)O[C@H](O[C@@H]3[C@H](C)O[C@H](O[C@H]4CC[C@]5(C)[C@@H](CC[C@@H]6[C@H]5C[C@@H](O)[C@]5(C)[C@@H](C7=CC(=O)OC7)CC[C@]65O)C4)C[C@@H]3O)C[C@@H]2O)C[C@H](O)[C@@H]1O,inactive: -81.8% [at 20.6 µM],–
Nc1ccc2oc3ccccc3c2c1,–,active: 11.2 µM
O=c1ccc2ccc(Oc3ccc([N+](=O)[O-])cc3[N+](=O)[O-])cc2o1,41.7%,–
CCOc1cc(NC(=O)c2ccco2)c(OCC)cc1NC(=O)c1cc(OC)c(OC)c(OC)c1,86.8%,–
CCCc1[nH]nc2c1C1(C(=O)N(C(C)C)c3ccccc31)C(C#N)=C(N)O2 (configuration not stated),36.2%,–
OC(CCN1CCOCC1)(c1ccc(Cl)cc1)C1CCCCC1 (configuration not stated),51.1%,–
CCOC(=O)C1CSc2[nH]c(=O)sc2C1c1ccccc1 (configuration not stated),20.4%,–
O=C(COC(=O)CNC(=O)c1ccco1)Nc1ccccc1OC(F)F,30.3%,–
COCCNC(=S)N1CCC(C(=O)c2ccc3c(c2)OCCO3)CC1,-15.5%,–
Cc1cc(C)nc(Nc2n[nH]c(-c3ccc(C(C)(C)C)cc3)n2)n1,inactive: -56%,–
Brc1ccc(-c2csc(N3CCOCC3)n2)cc1,66.1%,–
O=C(NC(=O)c1ccc(Cl)cc1)OC1CCCCC1,inactive: 22%,–
Oc1ccc2ccccc2c1/C=N/Nc1nnc(-c2ncc[nH]2)c2ccccc12,inactive: -116%,–
CNc1nc2cc([N+](=O)[O-])c([N+](=O)[O-])cc2nc1NC,-62.8%,–
CC(=O)c1ccc(NC(=O)COC(=O)c2c3c(nc4ccccc24)/C(=C\c2cccs2)CCC3)cc1,-101%,–
Cc1ccc(-c2nc3ccsc3c(=O)o2)cc1,inactive: 105%,–
Cc1ccc(-c2nc3cccnc3o2)cc1NC(=O)COc1ccc(Cl)cc1C,52.7%,–
O=[N+]([O-])c1ccc(Nc2c3ccccc3nc3ccccc23)cc1,-59.6%,–
CCc1c(C)sc(NC(=O)CC#N)c1C#N,35.8%,–
CCOc1ccc(C(=O)NCCc2ccccc2)cc1,–,active: 3.55 µM
CCc1ccc2[nH]c(=O)c(CN(CCCN3CCOCC3)C(=O)Nc3ccccc3)cc2c1,41.7%,–
O=S(=O)(c1ccc(NC(=S)NCCC(c2ccccc2)c2ccccc2)cc1)N1CCOCC1,inactive: -55.1%,–

SMILES,"activity change, positive = activation",Potency
Nc1nc(Cl)nc2c1ncn2[C@@H]1O[C@H](CO)[C@H](O)[C@H]1O,inactive: -6.12%,–
CN(c1nc(-c2ccccc2)cs1)C1CCS(=O)(=O)C1 (configuration not stated),32.3%,–
COc1cccc(-c2nnc(SCCC(=O)O)n2C)c1,38.4%,–
O=C(c1ccc(F)cc1)N1CCN(c2ncccn2)CC1,24.4%,–
O=C(O)Cc1sc(Nc2ccc(F)cc2)nc1-c1cccs1,30.5%,–
Cc1ccc(-n2c(=O)c3sccc3n(Cc3cc(=O)n4cc(Cl)ccc4n3)c2=O)cc1F,–,active: 35.5 µM
COc1cc(C(=O)NC(=S)Nc2ccc(NC(=O)c3ccco3)cc2)cc(OC)c1OC,-10.1%,–
CC(/C=N/NC(=O)c1cccnc1)=C\c1ccccc1,47.7%,–
CCOc1ccccc1NC(=O)C1CCCN1C(=O)OCc1ccccc1 (configuration not stated),21.1%,–
Cc1ccc(S(=O)(=O)NC(=O)O[C@@H]2C(=O)c3cc(Br)ccc3O[C@H]2c2ccc3c(c2)OCO3)cc1,43.2%,–
CCCOC(=O)c1ccc(Oc2cn[nH]c2-c2ccc(OCC)cc2O)cc1,inactive: -44.8%,–
Cc1ncsc1C(=O)NCc1ccc(N2CCCC2=O)cc1,inactive: -43.9%,–
CC(=O)N1CCN(C(C)=O)C1c1ccccc1,46%,–
CCc1ccc(C(=O)Cn2ncc(Cl)c(Cl)c2=O)cc1,-67.7%,–
CN1CCc2nc3sc(C(=O)C45CC6CC(CC(C6)C4)C5)c(N)c3cc2C1,-72.3%,–
COc1ccc(-c2[nH]c(-c3cccc(OC)c3)nc2SCC(=O)NC2CCCC2)cc1,32.6%,–
COc1cc(NS(=O)(=O)c2ccc(OC)c(C)c2C)c(OC)cc1Cl,-56.9%,–
CCc1ccc(S(=O)(=O)N(C(=O)Oc2ccccc2)c2ccc3oc(C)c(C(=O)OC)c3c2)cc1,inactive: -32.6%,–
Cc1cc(C(=O)Nc2ccc(S(=O)(=O)Nc3nccs3)cc2)c(C)o1,31.6%,–
